Laboratory results published in PubChem BioAssay AID2417 (National Center for Advancing Translational Sciences (NCATS), 2010).
The whole screen tested about 140,000 compounds, of which about 4,300 (3.1%) were called active. This list was built around the results that the source calls inconclusive (neither active nor inactive); the mix of calls is not that of the screen.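 Rule for the calls: active = readout at or below -70, meaning at least 70% loss of cells showing the perinucleolar compartment, a nuclear body marking cancer cells; inconclusive = readout between -30 and a set limit; inactive = the rest.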

assay: High Content Assay for Compounds that inhibit the Assembly of the Perinucleolar Compartment; details: PC3M PTB-GFP, PNC prevalence imaging, 16 h; at 10 µM; stronger effect = lower value;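 note: plate controls were DMSO wells for no effect and camptothecin positive control wells for full effect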
How it was run: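 Compounds are pinned in duplicate onto adhered PC3M cells stably expressing GFP-tagged PTB and incubated 16 h at 37 C. Cells are then fixed, nuclei stained with Hoechst, and PNC-positive cells counted.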

Q: Which activity change (PNC), negative = inhibition does the source give for COc1ccc(S(=O)(=O)N(C)c2ccc(C(=O)N3CCOCC3)cc2)cc1 here?
A: The activity change (PNC), negative = inhibition was inconclusive: -51.5%.

Q: With O=C1C2C3CCC(C3)C2C(=O)N1CNc1ccc(F)cc1 (configuration not stated) as the compound, how does the activity change (PNC), negative = inhibition read?
A: The activity change (PNC), negative = inhibition was inconclusive: -37.4%.

Q: Which activity change (PNC), negative = inhibition does the source give for Cc1cc(C)nc(Sc2c(C)n[nH]c2C)n1 here?
A: The activity change (PNC), negative = inhibition was inconclusive: -48.1%.

Q: With COc1cccc(/C=N\NC(=O)c2sc(N)nc2C)c1OC as the compound, how does the activity change (PNC), negative = inhibition read?
A: Its activity change (PNC), negative = inhibition is inconclusive: -50.2%.

Q: For Cn1c(NC(=O)c2ccccc2Br)cc(=O)n(C)c1=O, which activity change (PNC), negative = inhibition is on record?
A: The activity change (PNC), negative = inhibition was inconclusive: -48.4%.

Q: Which activity change (PNC), negative = inhibition does the source give for N#C/C(=C/c1ccccc1[N+](=O)[O-])C(=O)NCc1ccco1 here?
A: The activity change (PNC), negative = inhibition was inconclusive: -40.6%.

Q: For CCOC(=O)N1CCN(C(=O)c2ccc(Cn3c(=S)[nH]c4cc5c(cc4c3=O)OCO5)cc2)CC1, which activity change (PNC), negative = inhibition is on record?
A: The activity change (PNC), negative = inhibition was inconclusive: -72.6%.

Q: Which activity change (PNC), negative = inhibition does the source give for Cc1sc2nc(C3CC3)nc(SCC(=O)N3CCc4ccccc4C3)c2c1C here?
A: The activity change (PNC), negative = inhibition was inconclusive: -50.1%.

Q: For Cc1ccc(OCC(=O)Nc2cccc(-c3nnc(-c4ccccc4)o3)c2)cc1, which activity change (PNC), negative = inhibition is on record?
A: Its activity change (PNC), negative = inhibition is inconclusive: -34.6%.

Q: With COc1ccc(C(=O)Nc2cccc(C(=O)N3CCCC3)c2)cc1 as the compound, how does the activity change (PNC), negative = inhibition read?
A: The activity change (PNC), negative = inhibition was inconclusive: -43.7%.

Q: With COc1ccc2c(c1)c(=O)oc1c(C)c(OCC(=O)N3CCc4ccccc4C3)ccc12 as the compound, how does the activity change (PNC), negative = inhibition read?
A: The activity change (PNC), negative = inhibition was inconclusive: -53%.

Q: With CCOC(=O)NCc1ccc(Cl)c(Cl)c1 as the compound, how does the activity change (PNC), negative = inhibition read?
A: The activity change (PNC), negative = inhibition was inconclusive: -49.3%.

Q: With CCOc1ccc(-n2c(-c3ccc(OC)cc3)c[n+]3c2CCCCC3)cc1 as the compound, how does the activity change (PNC), negative = inhibition read?
A: The activity change (PNC), negative = inhibition was inactive: 29.6%.

Q: For CC(C)CNC(=O)c1ccc(NC(=O)c2cccs2)cc1, which activity change (PNC), negative = inhibition is on record?
A: Its activity change (PNC), negative = inhibition is inactive: -3.04%.

Q: For COc1ccccc1CNC(=O)c1ccc(OC(F)F)c(OC)c1, which activity change (PNC), negative = inhibition is on record?
A: The activity change (PNC), negative = inhibition was inconclusive: -31.3%.

Q: Which activity change (PNC), negative = inhibition does the source give for Cc1ccc(C(=O)CCCn2nnc(-c3cccnc3)n2)cc1C here?
A: Its activity change (PNC), negative = inhibition is inconclusive: -37.3%.

Q: For CCOC(=O)c1c(NC(=O)COC)sc2c1CCCC2, which activity change (PNC), negative = inhibition is on record?
A: Its activity change (PNC), negative = inhibition is active: -83.7%.

Q: For O=C(CSc1nnnn1C1CCCCC1)Nc1ccc2c(c1)OCO2, which activity change (PNC), negative = inhibition is on record?
A: The activity change (PNC), negative = inhibition was inactive: -17%.

Q: For COc1cc(C2CC(=O)N3CN(Cc4ccco4)CSC3=C2C#N)ccc1OCc1ccccc1 (configuration not stated), which activity change (PNC), negative = inhibition is on record?
A: The activity change (PNC), negative = inhibition was inactive: -22.9%.

Q: With COC(=O)[C@@H](NC(=O)NCc1ccccc1F)C(C)C as the compound, how does the activity change (PNC), negative = inhibition read?
A: Its activity change (PNC), negative = inhibition is inconclusive: -55.2%.

Q: For CCS(=O)(=O)N1CCN(c2ccc([N+](=O)[O-])c(N3CCOCC3)c2)CC1, which activity change (PNC), negative = inhibition is on record?
A: The activity change (PNC), negative = inhibition was inactive: -8.71%.

Q: Which activity change (PNC), negative = inhibition does the source give for COc1ccc(OC)c(N(CC(=O)N2CCN(c3cc(Cl)ccc3C)CC2)S(C)(=O)=O)c1 here?
A: The activity change (PNC), negative = inhibition was inconclusive: -44.2%.

Q: Which activity change (PNC), negative = inhibition does the source give for CCCOc1ccc2oc(=O)c3c(c2c1)CCCN3C(=O)CN1CCN(C(=O)c2ccco2)CC1 here?
A: Its activity change (PNC), negative = inhibition is inactive: 14.9%.

Q: Which activity change (PNC), negative = inhibition does the source give for O=C(NCc1ccccc1)c1ccc(-c2ccccc2F)o1 here?
A: Its activity change (PNC), negative = inhibition is inactive: 42.5%.

Q: For Cc1sc(NC(=O)c2ccco2)c(C(c2cccnc2)N2CCN(c3ccc(F)cc3)CC2)c1C (configuration not stated), which activity change (PNC), negative = inhibition is on record?
A: The activity change (PNC), negative = inhibition was inconclusive: -52.9%.

Q: For COC(=O)c1ccccc1NC(=S)N(Cc1ccc2c(c1)OCO2)Cc1cc2cc(OC)ccc2[nH]c1=O, which activity change (PNC), negative = inhibition is on record?
A: Its activity change (PNC), negative = inhibition is inactive: -19.2%.

Q: Which activity change (PNC), negative = inhibition does the source give for Cc1ccc(C)c(NC(=S)NCCSc2ccc(Cl)cc2)c1 here?
A: Its activity change (PNC), negative = inhibition is inconclusive: -51.1%.

Q: Which activity change (PNC), negative = inhibition does the source give for CCn1c(SCC(=O)N2CCCCC2C)nnc1-c1ccc(S(=O)(=O)N2CCN(C)CC2)cc1 (configuration not stated) here?
A: The activity change (PNC), negative = inhibition was inconclusive: -30.7%.

Q: Which activity change (PNC), negative = inhibition does the source give for Cc1cc(=O)[nH]c(SCC(=O)Nc2cccc(C(F)(F)F)c2)n1 here?
A: The activity change (PNC), negative = inhibition was inactive: 14.8%.

Q: Which activity change (PNC), negative = inhibition does the source give for COC(=O)C1=C(C)NC(=O)NC1/C=C/c1ccccc1 (configuration not stated) here?
A: The activity change (PNC), negative = inhibition was inconclusive: -46%.

Q: For CCN(CC)c1ccc(CN(C(=O)c2ccco2)C2CCS(=O)(=O)C2)cc1 (configuration not stated), which activity change (PNC), negative = inhibition is on record?
A: Its activity change (PNC), negative = inhibition is inconclusive: -48.8%.

Q: For O=C1Nc2ccccc2SC(c2ccccc2)C1O (configuration not stated), which activity change (PNC), negative = inhibition is on record?
A: Its activity change (PNC), negative = inhibition is inconclusive: -30.4%.

Q: For Nc1nc2ccccc2n1/N=C/c1ccc(Br)cc1, which activity change (PNC), negative = inhibition is on record?
A: Its activity change (PNC), negative = inhibition is inconclusive: -42.8%.

Q: Which activity change (PNC), negative = inhibition does the source give for CCOP(=O)(OCC)C(NC(=O)Nc1cccc(Cl)c1)C(N)=O (configuration not stated) here?
A: The activity change (PNC), negative = inhibition was inactive: -1.14%.

Q: With Cc1cccc(Nc2nnc(SCC(=O)NC(=O)Nc3ccc4c(c3)OCCO4)s2)c1 as the compound, how does the activity change (PNC), negative = inhibition read?
A: The activity change (PNC), negative = inhibition was inconclusive: -73.8%.

Q: With COc1ccc(NS(=O)(=O)c2cc(C(=O)O)ccc2C)cc1 as the compound, how does the activity change (PNC), negative = inhibition read?
A: The activity change (PNC), negative = inhibition was inactive: 50.8%.

Q: Which activity change (PNC), negative = inhibition does the source give for COc1ccc2c(c1)c1ncn(CCN3CCNCC3)c(=O)c1n2C here?
A: The activity change (PNC), negative = inhibition was inconclusive: -49.3%.

Q: Which activity change (PNC), negative = inhibition does the source give for COC(=O)c1cc(O)c(OCc2ccccc2)c(O)c1 here?
A: Its activity change (PNC), negative = inhibition is active: -85.3%.

Q: With CCOC(=O)N1CCC(N2C(=O)c3ccc(C(=O)NCc4ccc(F)cc4)cc3C2=O)CC1 as the compound, how does the activity change (PNC), negative = inhibition read?
A: Its activity change (PNC), negative = inhibition is inactive: 13.9%.

Q: With Cc1ccccc1NC(=O)c1ccc(S(=O)(=O)C(F)F)cc1 as the compound, how does the activity change (PNC), negative = inhibition read?
A: The activity change (PNC), negative = inhibition was inconclusive: -54%.

Q: For CC(=O)OC1CCC(OC(C)=O)c2c1n([O-])c(C)c(C)[n+]2=O (configuration not stated), which activity change (PNC), negative = inhibition is on record?
A: Its activity change (PNC), negative = inhibition is inconclusive: -53.7%.

Q: With O=C(O)c1ccccc1Nc1ccccc1C(=O)O as the compound, how does the activity change (PNC), negative = inhibition read?
A: Its activity change (PNC), negative = inhibition is inconclusive: -38.2%.

Q: Which activity change (PNC), negative = inhibition does the source give for CCCCNc1nc(-c2ccccc2)nc(-n2ccnc2)n1 here?
A: The activity change (PNC), negative = inhibition was inconclusive: -54.5%.

Q: Which activity change (PNC), negative = inhibition does the source give for O=S(=O)(Nc1ncnc2c1oc1ccccc12)c1ccc(Cl)s1 here?
A: Its activity change (PNC), negative = inhibition is inactive: 15.8%.

Q: With Cn1cnnc1Sc1cc(N2CCN(S(=O)(=O)c3ccccc3)CC2)ccc1[N+](=O)[O-] as the compound, how does the activity change (PNC), negative = inhibition read?
A: Its activity change (PNC), negative = inhibition is inconclusive: -39%.

Q: For CCCS(=O)(=O)NCCc1cc2cc(C)c(C)cc2[nH]c1=O, which activity change (PNC), negative = inhibition is on record?
A: The activity change (PNC), negative = inhibition was active: -100%.

Q: For CC(C)Cn1c2c(c(O)c(C(=O)Nc3ccc(F)cc3)c1=O)CCCC2, which activity change (PNC), negative = inhibition is on record?
A: The activity change (PNC), negative = inhibition was inactive: 16.8%.

Q: For COc1ccc(C(=O)Nc2ccccc2C(=O)NCCN2CCOCC2)cc1, which activity change (PNC), negative = inhibition is on record?
A: Its activity change (PNC), negative = inhibition is inconclusive: -47.1%.

Q: Which activity change (PNC), negative = inhibition does the source give for O=C(Nc1ccccc1Cl)c1cc(S(=O)(=O)N2CCCCC2)ccc1N1CCOCC1 here?
A: The activity change (PNC), negative = inhibition was inactive: 25.1%.

Q: For C/C(=N\NC(N)=O)c1cccc(Cl)c1, which activity change (PNC), negative = inhibition is on record?
A: Its activity change (PNC), negative = inhibition is inconclusive: -49%.

Q: Which activity change (PNC), negative = inhibition does the source give for O=C(Nc1cc(C(F)(F)F)ccc1N1CCOCC1)c1ccc(Cl)nc1 here?
A: The activity change (PNC), negative = inhibition was inconclusive: -47.5%.

Q: For Cn1c(=O)c2c(nc(NCCc3ccccc3)n2Cc2ccccc2)n(C)c1=O, which activity change (PNC), negative = inhibition is on record?
A: The activity change (PNC), negative = inhibition was inconclusive: -39.2%.

Q: With O=S(=O)(c1cccc(C(F)(F)F)c1)N(CCCN1CCOCC1)Cc1cccs1 as the compound, how does the activity change (PNC), negative = inhibition read?
A: Its activity change (PNC), negative = inhibition is inconclusive: -79.2%.

Q: Which activity change (PNC), negative = inhibition does the source give for Cc1cccn2c(=O)c3cc(C(=O)NCCCN4CCOCC4)n(C)c3nc12 here?
A: Its activity change (PNC), negative = inhibition is active: -95%.

Q: With Cc1ccc(S(=O)(=O)/N=C2\CN(C)C(=O)N2C)cc1 as the compound, how does the activity change (PNC), negative = inhibition read?
A: The activity change (PNC), negative = inhibition was active: -113%.

Q: Which activity change (PNC), negative = inhibition does the source give for N#Cc1ccc(COC(=O)C2CCC(=O)N2)cc1 (configuration not stated) here?
A: Its activity change (PNC), negative = inhibition is inconclusive: -79%.

Q: Which activity change (PNC), negative = inhibition does the source give for Cc1cc(C)c2c(c1)c(C)cc1nnc(SCC(=O)c3cccs3)n12 here?
A: The activity change (PNC), negative = inhibition was inconclusive: -50.9%.
